The whole screen tested about 52,000 sequences, of which about 210 (0.4%) were called active.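 The calls were made as follows: active = gene whose silencing raises cell survival under the drug, median off-target-corrected z-score across its silencing RNAs 2 or more; inactive = the rest.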 The list shows a part of the results.

This test can be described thus: Resistance to Poly (ADP-Ribose) Polymerase inhibitor: Gene Identification via Genome-wide siRNA Screen. Conditions: mouse BRCA2 R2336H ES cells, olaparib, CellTiter-Glo viability; stronger effect = higher value. A digest of the protocol:
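Genome-wide siRNA screen (3 siRNAs/gene, 20 nM) in mouse ES cells carrying hypomorphic BRCA2 R2336H; olaparib 500 nM added 48 h post-transfection, CellTiter-Glo viability 72 h later. Normalized to plate-median negative control; MAD z-scores, gene median, seed-adjusted.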
For GGUGAUCACUAAACUCCAATT against Msh4, the z-score was inactive: -0.0659.

As for GGUGAAGGUGAAACGAUAUTT against Mfap1, the z-score is inactive: -2.18.

Take GGGUGCUGAUGGACAAUAATT against Speer3: the z-score is inactive: -0.67.

For GGAAUCACAUCCAGUUGGUTT against Diablo, the z-score is inactive: 0.946.

Regarding GGAUAAGAAGAAAUGUCUGTT against 6-Sep, the z-score was inactive: -0.0425.

Take GGAAGUUUCUGAAGGAACATT against Olfr630: the z-score is inactive: -0.123.

As to CCUGUAGGAGUGACUUCCUTT against Crbn, the z-score is inactive: -1.38.

Turning to GGCUUGUUUCCACCAAUAGTT against Creb3l2, the z-score was inactive: -1.03.

Turning to “GCCCAAACGUGCAGUAAGUTT against 2610029D06Rik”, the z-score is inactive: -0.704.

On to GCACUUGUUGUUAUACUUCTT against Olfr23, for which the z-score is inactive: -0.264.

GCGGAAAUCUAAUUGCUUGTT against Htatip: the z-score is inactive: -1.22.

As for GGAACGAACUUACAGAGAUTT against Krt1-c29, the z-score is inactive: 0.0974.

Turning to GGGAGUUUCCAGAUGUUUUTT against Gclm, the z-score was inactive: -0.186.

As to GGCUUGGCUUCUUUAUUGUTT against Olfr218, the z-score is inactive: 0.0325.

Regarding “GGUUUGAAUUAGGUUAGAGTT against D330024H06Rik”, the z-score is inactive: -0.647.

As for GUGGCAGCACGACCUAUUCTT against Refbp2, the z-score was inactive: -2.32.

Regarding GGGCGAGAUCGCUACUAUUTT against Irf2bp1, the z-score was inactive: -0.881.

On to “GGUUUUGUGGGAAGAGUCATT against 0610037D15Rik”, for which the z-score is inactive: -2.4.

For GCCGGACAACUCUAAUCAGTT against Herpud1, the z-score is inactive: 1.32.

As to GGUCUAGGAUCAAUGCCUATT against Trpc3, the z-score is inactive: -0.341.

On to “GGAAGACAAUAAGAAGUGGTT against 9130404D14Rik”, for which the z-score is inactive: -1.42.

Take GGAUUUCUUCCAGAAGAUGTT against Grhpr: the z-score is inactive: 0.431.

For GGGAAAAGCUUUGGUUGCCTT against Gpsm2, the z-score is inactive: -0.913.

Consider GCCUGCUAGUUAUGUUUCATT against MGC90611, for which the z-score is inactive: -3.01.

Regarding GCUAGAUACUAACAACUCCTT against T, the z-score was inactive: 2.4.

On to “GCCUGCAUUAAACUCAUGUTT against A930017M01Rik”, for which the z-score is inactive: -1.37.

Take GCCGAAAAUUACCAAAUGATT against Cnksr2: the z-score was inactive: -1.22.

In the case of GGUUUAAAGAAACUACCAGTT against Pam, the z-score was inactive: 0.257.

Consider “GGUCAUGAAAAUUAAAGCATT against 1110059G10Rik”, for which the z-score is inactive: 2.13.

As for “CCCUUCACACGAGUAUGAATT against 1700027N10Rik”, the z-score is inactive: 0.279.

As to GACAAGGUGCCAUACCAUUTT against Olfr351, the z-score is inactive: 0.712.

Turning to GUUUCAGUGCAGCCAUUACTT against Olfr518, the z-score is inactive: 0.805.

With GCAAGAGGAACCUUUCUUGTT against Mmp17, the z-score was inactive: -0.475.

GAACUAAGACACAUCUUUGTT against Tnni3k: the z-score was inactive: 0.987.

Consider GCAUCUAACUACUUGGGCCTT against Hhip, for which the z-score was inactive: 0.3.

In the case of CCAGAACUUCCCAUUAAAATT against Alg8, the z-score is inactive: -0.0137.

Turning to GGAUUUUUCAGGAGAUAUGTT against Ubtf, the z-score was inactive: -1.5.

For GCUUAUACACAGUACAGAATT against D6Mm5e, the z-score is inactive: -0.476.

As for GGACAAGAAGAACAUCAUCTT against Cfl1, the z-score was inactive: 0.526.

On to GGUGUGUGGUUUUUAAUAATT against Abhd3, for which the z-score was inactive: 0.437.

In the case of GCAAUUAGUCACCAAGGCCTT against Ube2v1, the z-score was inactive: -0.986.

CCUCUGUCUAGAAUUACUATT against Kcnv2: the z-score was inactive: -0.171.

As for GCUAAAACAAGUUUGAAGATT against Sntg2, the z-score was inactive: 1.39.

Consider CCUGAUGCCAGUUAACAGUTT against Dscr1, for which the z-score is inactive: -0.103.

On to GAGUGCUCUGAAAUAUUUUTT against Mup4, for which the z-score is inactive: 0.94.

Turning to GCCAAUAUAUCUGUGGUGUTT against Olfr1186, the z-score is inactive: -0.503.

In the case of CCGUGAAUGACUCGUCCUCTT against Dhrsx, the z-score was inactive: -0.0305.

Regarding GCAGAGCUUCUGCUCUUCUTT against Olfr527, the z-score is inactive: 0.133.

As to GGAGAAUCCAUUCAACUCUTT against Aoah, the z-score was inactive: -0.819.

On to GGUACAGAAACAGUUAGUUTT against Olfr432, for which the z-score is inactive: -0.231.

As for GCACGAGAAAAAUACUACGTT against Slc18a2, the z-score was inactive: 0.674.

Take GGAGAAAGUGAUUGACAUATT against Lpin2: the z-score is inactive: -0.387.

As for GUCUUUUUAUGGAUGUAUGTT against V1rc13, the z-score is inactive: 0.137.

For the sequence GCUCUGUUUUUAACCAUCCTT against Ccnt2, the z-score was inactive: -0.655.

Consider CCAUGUCAAACACCUUAGUTT against Zf, for which the z-score is inactive: -0.665.

Take GGUAGUGCAACCAUCACGUTT against Pcdhb14: the z-score is inactive: 0.87.

Regarding GCACAAGCGAUGGGUUAACTT against Fkbp1a, the z-score was inactive: -2.67.

For the sequence GCCCUAUCUCAAGUCACUATT against Entpd3, the z-score is inactive: 0.487.

With CGAUGAGGGCAGAUACCUATT against Pthlh, the z-score is inactive: 0.366.

Regarding GGAGAAACUGUAGUAAAUGTT against AI317237, the z-score was inactive: 0.0411.

With GGGCAAGAAGAGAAACUAATT against Krtcap2, the z-score is inactive: -0.392.

For the sequence “CCAUAAAUGAGUCUUCAUUTT against 4930539E08Rik”, the z-score is inactive: 0.335.

With GCAAGAAAAACAUGAACUGTT against Klra17, the z-score is inactive: 0.913.

GGAGCUUUCUCAGAGGUGUTT against Camk1g: the z-score was inactive: -1.76.

For GGUGAAGACCAUCUUGACCTT against Clcnkb, the z-score is inactive: -0.162.

Turning to GGAGCAAGUAAAAGUAUCUTT against Fpr-rs6, the z-score was inactive: -1.26.

In the case of GGAGUCUAAAGGAAAUGUATT against Slc22a9, the z-score was inactive: -1.42.

For CGGUAAAGUAGGGAAGAUGTT against Duox2, the z-score was inactive: 0.346.

As to GAACAUCAUCUCACACUCATT against Olfr874, the z-score was inactive: -0.051.

For “GGUAGAAACCUCUACUGUCTT against A830020B06Rik”, the z-score was inactive: 1.21.

As to GGAACAGAACCUCAGACGATT against Itih5, the z-score was inactive: 1.02.

For the sequence GGGCUGUGAACACAAGUGUTT against Egfl3, the z-score was inactive: -1.02.

On to CCCUGUUAAGGAAUGCAAATT against Chi3l1, for which the z-score was inactive: -0.0256.

Consider GGUAGUAGAGUCAAAAAAGTT against Top1, for which the z-score was inactive: -0.854.

GCCCUUUUCAAGUGAUCAGTT against Pfkfb1: the z-score is inactive: -1.08.

As for GCCAAUGAUACCUUUGACATT against Mcoln1, the z-score was inactive: -1.25.

For “GGAAGUAAGAGACUGUGAGTT against C330027I04Rik”, the z-score was inactive: -1.2.

Regarding GACUCCCACUUACACUCUCTT against Olfr1312, the z-score is inactive: -1.08.

With GGUUACAUGGAUUGAAGCUTT against Scrn3, the z-score was inactive: -0.0938.

GCAGAGAUAAAUUGGAAAGTT against Art2b: the z-score is inactive: 0.181.

For CGGAACCAUACUUUCCUUATT against Olfr1162, the z-score is inactive: 0.568.

Consider GCAACAACCUGUGCCUACATT against Lgals1, for which the z-score is inactive: 0.408.

On to GGUUCUUGACCCUUUCACATT against Atcay, for which the z-score is inactive: 0.139.

For the sequence GGGUGGUUAGAACAGCCACTT against Prss16, the z-score was inactive: 1.01.

As to GGAAGUUCUGCACACAGCATT against Pthr1, the z-score was inactive: -0.362.

For the sequence GGAUCAAGGAGCAAGUGGUTT against Galgt1, the z-score was inactive: -1.78.

Turning to GCUGGAUCCAUCUAAUUGCTT against Klhl12, the z-score was inactive: 1.42.

As to “GGCCCGUCACAUGAAGAAGTT against D830007E07Rik”, the z-score was inactive: 0.398.

Consider “GGUUGUCAAUCAUGUCUAUTT against 6330416L11Rik”, for which the z-score is inactive: -0.0551.

Consider “GGUGUAUGAGUUUGAGUUUTT against 9030625A04Rik”, for which the z-score was inactive: 0.176.

Consider CGACUCCAAGUGGUUUAAATT against Sema6b, for which the z-score is inactive: -0.416.

Consider GCACCUAAAGUACGUUUCATT against Ube2n, for which the z-score was inactive: -2.89.

On to GCCACUGUCACUUUUGUACTT against Arl11, for which the z-score was inactive: 1.91.

Take CCAAUUUGGCUUCACUUCCTT against Fprl1: the z-score was inactive: 0.682.

As for “GCUGAACAGGUUACGAAAATT against 2010321M09Rik”, the z-score was inactive: -0.352.

Consider “GGAUGAGCUAAUAGCUAAGTT against G430022H21Rik”, for which the z-score is inactive: 0.328.

For the sequence CCAUUAUUUUACGAAACCUTT against Rbm10, the z-score was inactive: -0.898.

Turning to GGCUCUAAAGCAAUGGAUUTT against Bclp2, the z-score is inactive: 0.613.

Take GGGUGACAUUGUCUAUAUCTT against Sh3d4: the z-score is inactive: 0.3.

As to GGCAGAGAGAUGUUACAAGTT against Ccl8, the z-score is inactive: -0.328.

As to “GCGAAGCCAUGUUUCACCUTT against 1300018J18Rik”, the z-score is inactive: -0.0663.

Turning to “CCCAGGACGAGACUUAAAUTT against B430218L07Rik”, the z-score was inactive: 0.583.

Turning to CCCUGAACGAAUAAUCGGCTT against Cbx3, the z-score was inactive: -0.637.

For GGGAUUAAGUCACCUCUGUTT against Rab15, the z-score is inactive: -1.69.

Source of the values: PubChem BioAssay AID1347423 (Functional Genomics Laboratory (NCATS/FGL), 2020).
